For experiment [1], the target named is AFB4-Myc (pAFB5:AFB4-4×Myc) (Arabidopsis thaliana) (UniProt Q8RWQ8). Description: co-IP; Myc-tagged F-box proteins immunoprecipitated from crude plant extracts with anti-c-Myc antibody coupled to agarose beads; ASK1 detected by blot with anti-ASK1 antibody.
Experiment [2] has as its target AFB5-Myc (pAFB5:AFB5-4×Myc) (Arabidopsis thaliana) (UniProt Q9LTX2). Described as above.

By UniProt entry, the sequences of proteins in these tests, tags left out. Where a name states a change or a piece, a line headed by the entry shows the natural chain unless it says otherwise.
UniProt Q8RWQ8: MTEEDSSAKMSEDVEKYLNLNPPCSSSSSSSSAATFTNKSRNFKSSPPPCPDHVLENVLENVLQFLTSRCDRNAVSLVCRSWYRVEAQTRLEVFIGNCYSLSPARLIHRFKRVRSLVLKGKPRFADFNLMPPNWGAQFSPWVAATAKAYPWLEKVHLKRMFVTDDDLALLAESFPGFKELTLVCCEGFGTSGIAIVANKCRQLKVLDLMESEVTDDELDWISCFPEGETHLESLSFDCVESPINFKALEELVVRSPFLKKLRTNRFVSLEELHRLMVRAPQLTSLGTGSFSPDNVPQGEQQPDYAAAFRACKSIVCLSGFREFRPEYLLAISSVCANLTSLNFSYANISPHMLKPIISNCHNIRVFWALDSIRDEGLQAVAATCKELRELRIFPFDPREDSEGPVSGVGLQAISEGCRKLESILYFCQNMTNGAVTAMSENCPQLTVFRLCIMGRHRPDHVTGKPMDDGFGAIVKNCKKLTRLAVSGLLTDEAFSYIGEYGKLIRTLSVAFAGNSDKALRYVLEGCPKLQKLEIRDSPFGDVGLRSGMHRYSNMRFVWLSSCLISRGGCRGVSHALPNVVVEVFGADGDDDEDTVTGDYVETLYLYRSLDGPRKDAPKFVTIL
UniProt Q9LTX2: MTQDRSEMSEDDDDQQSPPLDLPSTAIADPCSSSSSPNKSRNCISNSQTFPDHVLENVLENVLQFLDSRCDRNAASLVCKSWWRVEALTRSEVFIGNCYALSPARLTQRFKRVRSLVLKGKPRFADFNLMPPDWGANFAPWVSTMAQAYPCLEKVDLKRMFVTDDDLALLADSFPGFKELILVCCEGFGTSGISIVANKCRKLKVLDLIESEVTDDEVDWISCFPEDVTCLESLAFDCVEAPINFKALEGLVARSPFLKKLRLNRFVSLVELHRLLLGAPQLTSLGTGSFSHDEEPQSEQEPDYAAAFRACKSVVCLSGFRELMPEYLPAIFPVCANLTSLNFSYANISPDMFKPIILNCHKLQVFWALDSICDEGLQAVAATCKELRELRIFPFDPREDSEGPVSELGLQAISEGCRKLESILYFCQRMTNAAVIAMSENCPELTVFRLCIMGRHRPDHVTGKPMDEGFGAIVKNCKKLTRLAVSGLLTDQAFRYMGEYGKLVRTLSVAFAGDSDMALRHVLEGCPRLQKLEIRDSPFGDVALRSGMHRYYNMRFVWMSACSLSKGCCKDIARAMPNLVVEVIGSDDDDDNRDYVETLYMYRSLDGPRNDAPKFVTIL
UniProt Q39255: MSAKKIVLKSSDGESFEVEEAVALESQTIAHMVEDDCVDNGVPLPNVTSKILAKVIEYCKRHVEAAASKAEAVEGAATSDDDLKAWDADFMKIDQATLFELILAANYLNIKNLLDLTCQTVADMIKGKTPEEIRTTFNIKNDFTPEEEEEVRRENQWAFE

These are yes or no findings as the source states them, for the method shown. In cells and extracts the contact can be indirect. Binding calls can cover weak binding; strength is not graded here.

Consider “ASK1 (Arabidopsis SKP1-related protein) (from UniProt Q39255 1-160)”, for which the binding entry in experiment [1] and in experiment [2] was “binds” in each case.
